# The list shows a part of the results.
# The chains behind the UniProt entries cited, without tags or fusion partners. Where a name states a change or a piece, a line headed by the entry shows the natural chain unless it says otherwise.
# UniProt Q9BY66, whole entry, looked up: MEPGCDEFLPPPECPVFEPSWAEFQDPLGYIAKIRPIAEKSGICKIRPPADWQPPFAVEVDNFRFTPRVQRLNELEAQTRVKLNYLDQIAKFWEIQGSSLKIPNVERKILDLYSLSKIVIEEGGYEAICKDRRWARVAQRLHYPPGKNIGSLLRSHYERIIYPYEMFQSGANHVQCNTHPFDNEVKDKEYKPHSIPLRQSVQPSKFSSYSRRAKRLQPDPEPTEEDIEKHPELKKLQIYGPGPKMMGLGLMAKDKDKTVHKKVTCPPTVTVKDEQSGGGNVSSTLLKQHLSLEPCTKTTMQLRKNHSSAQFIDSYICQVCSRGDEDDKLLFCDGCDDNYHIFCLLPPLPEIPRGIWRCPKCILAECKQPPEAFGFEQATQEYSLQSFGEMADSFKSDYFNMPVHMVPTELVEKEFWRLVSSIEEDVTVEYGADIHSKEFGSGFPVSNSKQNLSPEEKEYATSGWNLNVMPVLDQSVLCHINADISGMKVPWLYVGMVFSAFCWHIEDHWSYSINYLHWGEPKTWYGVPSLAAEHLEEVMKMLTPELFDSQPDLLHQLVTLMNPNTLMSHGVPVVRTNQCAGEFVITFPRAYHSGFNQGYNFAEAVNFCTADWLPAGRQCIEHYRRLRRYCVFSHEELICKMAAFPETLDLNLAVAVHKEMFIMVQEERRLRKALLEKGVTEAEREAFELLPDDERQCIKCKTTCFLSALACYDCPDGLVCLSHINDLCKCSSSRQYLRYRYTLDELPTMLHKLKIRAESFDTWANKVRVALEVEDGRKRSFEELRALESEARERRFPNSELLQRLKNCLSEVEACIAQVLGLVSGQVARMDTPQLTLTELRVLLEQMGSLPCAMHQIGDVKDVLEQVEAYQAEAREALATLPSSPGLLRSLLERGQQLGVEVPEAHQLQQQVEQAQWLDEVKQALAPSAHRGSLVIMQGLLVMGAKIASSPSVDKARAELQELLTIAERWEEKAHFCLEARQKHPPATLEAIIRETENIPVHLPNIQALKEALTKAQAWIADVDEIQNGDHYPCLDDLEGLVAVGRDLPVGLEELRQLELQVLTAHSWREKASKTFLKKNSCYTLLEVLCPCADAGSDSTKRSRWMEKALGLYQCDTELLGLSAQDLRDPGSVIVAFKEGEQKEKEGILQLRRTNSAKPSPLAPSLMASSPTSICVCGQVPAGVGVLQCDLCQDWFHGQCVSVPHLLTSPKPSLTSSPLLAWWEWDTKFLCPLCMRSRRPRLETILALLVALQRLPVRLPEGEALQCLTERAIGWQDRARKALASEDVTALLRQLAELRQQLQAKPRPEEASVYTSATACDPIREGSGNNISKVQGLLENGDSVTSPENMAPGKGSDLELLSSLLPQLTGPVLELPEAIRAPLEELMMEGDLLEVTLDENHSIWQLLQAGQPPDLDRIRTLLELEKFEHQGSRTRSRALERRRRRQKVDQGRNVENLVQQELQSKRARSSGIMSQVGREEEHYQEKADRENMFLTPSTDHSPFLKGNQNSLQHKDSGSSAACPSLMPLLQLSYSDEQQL
# UniProt Q14667: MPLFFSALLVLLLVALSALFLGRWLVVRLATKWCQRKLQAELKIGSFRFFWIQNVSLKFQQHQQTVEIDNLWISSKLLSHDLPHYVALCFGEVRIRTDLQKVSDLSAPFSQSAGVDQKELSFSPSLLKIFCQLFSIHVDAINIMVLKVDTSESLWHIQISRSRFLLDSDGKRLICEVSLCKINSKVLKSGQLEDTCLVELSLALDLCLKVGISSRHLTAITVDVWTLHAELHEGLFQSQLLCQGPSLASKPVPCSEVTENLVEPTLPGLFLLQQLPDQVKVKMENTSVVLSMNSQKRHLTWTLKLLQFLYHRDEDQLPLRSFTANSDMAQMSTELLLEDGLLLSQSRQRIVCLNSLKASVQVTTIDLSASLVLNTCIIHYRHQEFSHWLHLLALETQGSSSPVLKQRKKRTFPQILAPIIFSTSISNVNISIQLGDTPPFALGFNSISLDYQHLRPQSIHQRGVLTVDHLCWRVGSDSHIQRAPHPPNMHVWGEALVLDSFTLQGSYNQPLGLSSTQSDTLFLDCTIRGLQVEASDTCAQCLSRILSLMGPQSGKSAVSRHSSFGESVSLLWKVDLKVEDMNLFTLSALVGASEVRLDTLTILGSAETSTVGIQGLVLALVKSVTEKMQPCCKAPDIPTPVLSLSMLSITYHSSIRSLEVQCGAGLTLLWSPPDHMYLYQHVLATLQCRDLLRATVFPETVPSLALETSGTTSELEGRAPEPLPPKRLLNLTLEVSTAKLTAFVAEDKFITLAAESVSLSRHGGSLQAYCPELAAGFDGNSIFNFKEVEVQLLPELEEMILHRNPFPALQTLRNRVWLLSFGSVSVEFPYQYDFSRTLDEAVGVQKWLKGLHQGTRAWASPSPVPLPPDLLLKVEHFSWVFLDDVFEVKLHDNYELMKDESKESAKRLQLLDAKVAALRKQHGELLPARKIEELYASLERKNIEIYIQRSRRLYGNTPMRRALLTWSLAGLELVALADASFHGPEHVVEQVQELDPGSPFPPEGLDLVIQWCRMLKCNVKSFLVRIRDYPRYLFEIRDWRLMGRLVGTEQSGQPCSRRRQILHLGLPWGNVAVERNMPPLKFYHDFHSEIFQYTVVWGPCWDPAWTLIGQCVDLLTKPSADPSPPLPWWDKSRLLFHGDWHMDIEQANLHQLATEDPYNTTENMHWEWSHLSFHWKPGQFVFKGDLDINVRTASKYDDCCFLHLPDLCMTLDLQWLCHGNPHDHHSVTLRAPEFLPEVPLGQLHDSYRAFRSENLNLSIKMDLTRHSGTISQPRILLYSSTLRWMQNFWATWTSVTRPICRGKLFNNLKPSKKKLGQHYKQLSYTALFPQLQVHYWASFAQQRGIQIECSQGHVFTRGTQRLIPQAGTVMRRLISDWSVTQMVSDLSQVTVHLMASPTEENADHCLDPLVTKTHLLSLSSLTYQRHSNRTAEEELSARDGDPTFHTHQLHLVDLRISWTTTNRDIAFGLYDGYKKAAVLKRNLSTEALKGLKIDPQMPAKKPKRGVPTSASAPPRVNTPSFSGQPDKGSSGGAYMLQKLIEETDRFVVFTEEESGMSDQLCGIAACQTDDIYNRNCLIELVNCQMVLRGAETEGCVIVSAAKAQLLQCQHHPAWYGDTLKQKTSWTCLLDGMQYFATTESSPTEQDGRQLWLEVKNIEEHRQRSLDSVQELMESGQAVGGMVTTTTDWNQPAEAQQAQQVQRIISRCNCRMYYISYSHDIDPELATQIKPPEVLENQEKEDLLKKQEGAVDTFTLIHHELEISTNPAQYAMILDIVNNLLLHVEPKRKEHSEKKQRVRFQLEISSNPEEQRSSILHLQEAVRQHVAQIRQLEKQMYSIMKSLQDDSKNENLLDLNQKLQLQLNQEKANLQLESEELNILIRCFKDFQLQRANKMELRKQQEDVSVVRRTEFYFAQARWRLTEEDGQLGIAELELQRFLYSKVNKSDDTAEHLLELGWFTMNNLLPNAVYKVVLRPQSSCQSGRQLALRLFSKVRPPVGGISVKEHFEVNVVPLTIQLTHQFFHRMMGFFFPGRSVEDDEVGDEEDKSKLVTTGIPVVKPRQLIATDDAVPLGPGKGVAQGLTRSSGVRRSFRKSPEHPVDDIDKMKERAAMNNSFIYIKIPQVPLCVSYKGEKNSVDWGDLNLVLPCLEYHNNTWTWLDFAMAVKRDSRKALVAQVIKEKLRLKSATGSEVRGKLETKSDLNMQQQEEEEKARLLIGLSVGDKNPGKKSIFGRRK
# UniProt Q9BVA0, whole entry, looked up: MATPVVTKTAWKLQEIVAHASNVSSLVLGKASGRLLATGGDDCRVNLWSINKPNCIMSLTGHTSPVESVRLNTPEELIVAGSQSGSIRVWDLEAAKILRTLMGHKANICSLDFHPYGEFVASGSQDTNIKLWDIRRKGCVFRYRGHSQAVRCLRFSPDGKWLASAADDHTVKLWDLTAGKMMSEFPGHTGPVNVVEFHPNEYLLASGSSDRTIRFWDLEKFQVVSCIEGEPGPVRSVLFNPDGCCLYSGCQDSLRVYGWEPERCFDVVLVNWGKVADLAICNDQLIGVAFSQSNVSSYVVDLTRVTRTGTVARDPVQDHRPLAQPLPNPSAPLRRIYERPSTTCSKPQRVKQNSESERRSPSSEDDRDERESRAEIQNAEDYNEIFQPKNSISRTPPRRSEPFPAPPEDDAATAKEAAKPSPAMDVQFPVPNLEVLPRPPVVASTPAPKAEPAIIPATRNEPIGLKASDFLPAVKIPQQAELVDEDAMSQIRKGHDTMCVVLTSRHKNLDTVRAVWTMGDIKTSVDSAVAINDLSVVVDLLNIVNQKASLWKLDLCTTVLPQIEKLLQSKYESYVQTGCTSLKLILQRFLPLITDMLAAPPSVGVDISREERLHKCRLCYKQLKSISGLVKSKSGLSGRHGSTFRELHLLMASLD
# UniProt Q9P0J7: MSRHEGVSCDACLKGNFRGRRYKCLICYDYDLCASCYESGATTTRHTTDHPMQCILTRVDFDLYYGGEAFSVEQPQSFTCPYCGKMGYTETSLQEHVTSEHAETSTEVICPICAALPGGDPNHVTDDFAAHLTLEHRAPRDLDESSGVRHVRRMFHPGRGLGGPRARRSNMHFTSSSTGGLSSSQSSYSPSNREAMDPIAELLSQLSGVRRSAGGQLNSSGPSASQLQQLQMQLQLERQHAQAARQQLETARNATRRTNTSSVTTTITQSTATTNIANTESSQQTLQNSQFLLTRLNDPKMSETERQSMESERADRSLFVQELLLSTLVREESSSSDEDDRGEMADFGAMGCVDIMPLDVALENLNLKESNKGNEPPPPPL
# UniProt Q9P206: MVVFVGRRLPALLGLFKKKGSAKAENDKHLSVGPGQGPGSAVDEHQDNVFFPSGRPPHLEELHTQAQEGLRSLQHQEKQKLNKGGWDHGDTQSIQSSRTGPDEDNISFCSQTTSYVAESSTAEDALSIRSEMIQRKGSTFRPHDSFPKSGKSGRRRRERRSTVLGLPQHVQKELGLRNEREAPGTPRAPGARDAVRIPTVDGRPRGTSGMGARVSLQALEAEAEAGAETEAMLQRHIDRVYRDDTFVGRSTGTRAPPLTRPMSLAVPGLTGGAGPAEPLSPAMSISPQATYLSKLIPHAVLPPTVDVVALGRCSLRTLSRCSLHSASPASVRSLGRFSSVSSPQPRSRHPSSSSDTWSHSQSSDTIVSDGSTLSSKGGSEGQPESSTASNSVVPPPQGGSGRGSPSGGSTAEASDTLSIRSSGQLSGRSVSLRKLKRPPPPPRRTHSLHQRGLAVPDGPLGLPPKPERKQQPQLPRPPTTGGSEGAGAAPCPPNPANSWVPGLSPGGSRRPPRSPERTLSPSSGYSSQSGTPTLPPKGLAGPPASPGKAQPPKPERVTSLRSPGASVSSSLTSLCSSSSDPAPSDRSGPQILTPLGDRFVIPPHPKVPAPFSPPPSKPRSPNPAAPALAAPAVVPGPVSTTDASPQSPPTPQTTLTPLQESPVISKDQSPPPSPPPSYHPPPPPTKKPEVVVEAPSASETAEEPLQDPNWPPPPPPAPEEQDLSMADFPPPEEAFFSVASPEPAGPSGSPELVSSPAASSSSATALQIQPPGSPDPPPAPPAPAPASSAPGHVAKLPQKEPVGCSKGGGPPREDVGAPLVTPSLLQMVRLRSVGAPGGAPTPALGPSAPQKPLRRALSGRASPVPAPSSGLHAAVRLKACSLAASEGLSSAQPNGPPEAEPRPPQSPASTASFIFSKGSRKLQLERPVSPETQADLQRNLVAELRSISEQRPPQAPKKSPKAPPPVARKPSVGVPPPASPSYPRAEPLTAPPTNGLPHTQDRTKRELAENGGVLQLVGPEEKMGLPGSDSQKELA
# UniProt P33947: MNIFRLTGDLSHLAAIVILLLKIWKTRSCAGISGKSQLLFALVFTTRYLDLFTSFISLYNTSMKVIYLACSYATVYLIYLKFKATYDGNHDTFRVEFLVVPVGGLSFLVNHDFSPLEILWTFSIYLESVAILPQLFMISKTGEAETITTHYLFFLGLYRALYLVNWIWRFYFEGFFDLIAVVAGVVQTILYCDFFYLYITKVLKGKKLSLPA
# How the values were obtained:
# Test in all cases: log2 fold change, soluble protein after heating vs DMSO (PISA); higher = thermal stabilisation; K562 cells, 10 uM, 30 min; active = over 0.2 and 3.5 SD of the protein, either way, in both replicates (recomputed)
# [1] = compound: CC[C@@H]1C(=O)N(C)c2cnc(Nc3ccc(C(=O)NC4CCN(C)CC4)cc3OC)nc2N1C1CCCC1
# In short: (§1)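 Aliquots of K562 cells (2×10^6 cells/mL) treated with 10 μM compound for 30 min were heated for 3 min over 48°C-58°C. After pooling and extraction in PBS with 0.5% NP-40 at 4°C, soluble protein from a 21,000xg, 90 min spin was quantified by TMTpro 16plex LC-MS/MS with channel sums equalised. Thermal stability is expressed against control samples, from duplicates, as a log2 fold change.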
# volasertib = compound: CC[C@@H]1C(=O)N(C)c2cnc(Nc3ccc(C(=O)N[C@H]4CC[C@H](N5CCN(CC6CC6)CC5)CC4)cc3OC)nc2N1C(C)C [volasertib]
# In short: as §1
# [2] = compound: CC[C@H](C)N1C=C(C2=C(C=C(C=C21)C3=CN=C(C=C3)N4CCNCC4)C(=O)NCC5=C(C=C(NC5=O)C)C)C
# In short: as §1
# epoxomicin = compound: CC[C@H](C)[C@@H](C(=O)N[C@@H]([C@@H](C)O)C(=O)N[C@@H](CC(C)C)C(=O)[C@]1(CO1)C)NC(=O)[C@H]([C@@H](C)CC)N(C)C(=O)C [epoxomicin]
# In short: as §1
# [3] = compound: CCn1cc(-c2ccnc3[nH]c(-c4cccc(CN(C)C)c4)cc23)c(-c2ccc(NC(=O)N(C)C)cc2)n1
# In short: as §1
# [4] = compound: CN(C)CC(=O)Nc1ccc2[nH]c(=O)c3ccccc3c2c1
# In short: as §1
# [5] = compound: CN1C2=C(C3=C1C(=O)N(N=C3)CC4=CC(=CC=C4)N)SC(=C2)S(=O)C
# In short: as §1
# [6] = compound: CN1CCC(CNc2ccc3ncc(-c4cccc(OC(F)(F)F)c4)n3n2)CC1
# In short: as §1
# [7] = compound: CCn1c(C(=O)N(C2CC2)C2CC2)cc2c3c(ncn3C)c(Nc3cc(C)n(C)n3)nc21
# In short: as §1
# rosiglitazone = compound: CN(CCOC1=CC=C(C=C1)C[C@H]2C(=O)NC(=O)S2)C3=CC=CC=N3 (racemic) [rosiglitazone]
# In short: as §1
Target,log2 fold change [1],log2 fold change (volasertib),log2 fold change [2],log2 fold change (epoxomicin),log2 fold change [3],log2 fold change [4],log2 fold change [5],log2 fold change [6],log2 fold change [7],log2 fold change (rosiglitazone)
KDM5D isoform 3 (UniProt Q9BY66),inactive: -0.305,inactive: -0.404,inactive: 0.032,inactive: 0.163,inactive: 0.034,inactive: 0.223,inactive: -0.14,inactive: -0.059,–,–
KLHL18 (UniProt O94889),inactive: 0.075,inactive: -0.178,inactive: -0.123,active: 0.36,inactive: -0.01,inactive: -0.073,inactive: 0,inactive: 0.034,–,–
KIAA0100 (UniProt Q14667),inactive: -0.175,inactive: -0.047,inactive: 0.094,inactive: -0.018,inactive: -0.01,inactive: 0.01,inactive: -0.1,inactive: -0.048,inactive: -0.067,inactive: 0.02
KPNA6 (UniProt O60684),inactive: -0.225,active: -0.699,inactive: 0.04,inactive: 0.021,inactive: 0.043,inactive: 0.063,inactive: 0.227,inactive: -0.184,–,–
KIAA1324L (UniProt A8MWY0),active: -0.312,active: -0.293,inactive: -0.012,inactive: 0.015,inactive: -0.019,inactive: 0.091,inactive: -0.112,inactive: -0.14,–,–
KPNA4 (UniProt O00629),inactive: -0.008,inactive: -0.251,inactive: 0.033,inactive: -0.008,inactive: 0.029,inactive: 0,inactive: -0.066,inactive: -0.052,–,–
KIAA0930 isoform 2 (UniProt Q6ICG6),inactive: 0.067,inactive: -0.058,inactive: -0.098,inactive: 0.073,–,inactive: -0.012,inactive: -0.035,–,inactive: -0.073,inactive: -0.037
KIF23 (UniProt Q02241),inactive: -0.119,inactive: 0.003,inactive: 0.009,inactive: 0.051,inactive: 0.053,inactive: -0.04,inactive: 0.111,inactive: 0.064,inactive: -0.084,inactive: 0.091
JTB (UniProt O76095),inactive: -0.046,inactive: 0.013,inactive: 0.006,inactive: 0.069,–,inactive: -0.115,inactive: 0.012,–,inactive: -0.066,inactive: -0.004
IWS1 (UniProt Q96ST2),inactive: 0.048,inactive: 0.034,inactive: 0.029,inactive: 0.006,inactive: 0.021,inactive: 0.046,inactive: 0,inactive: -0.054,–,–
JAGN1 (UniProt Q8N5M9),inactive: 0.058,inactive: 0.018,inactive: -0.037,inactive: 0.073,inactive: -0.105,inactive: 0.006,inactive: -0.106,inactive: 0.065,inactive: 0.046,inactive: 0.013
KATNB1 (UniProt Q9BVA0),inactive: -0.012,inactive: -0.096,inactive: 0.028,inactive: -0.015,inactive: -0.02,inactive: -0.031,inactive: -0.008,inactive: -0.059,inactive: 0.021,inactive: 0.043
KPTN (UniProt Q9Y664),inactive: 0.019,inactive: -0.071,inactive: 0.162,inactive: 0.047,inactive: 0.048,inactive: 0.055,inactive: -0.023,inactive: -0.187,inactive: -0.004,inactive: 0.044
KPNA1 (UniProt P52294),inactive: -0.039,active: -0.312,inactive: 0.115,inactive: -0.051,inactive: 0.004,inactive: 0.055,inactive: 0.104,inactive: -0.082,–,–
KCMF1 (UniProt Q9P0J7),inactive: -0.098,inactive: 0.004,inactive: 0.065,inactive: -0.032,inactive: -0.007,inactive: 0.012,–,inactive: 0.214,inactive: -0.106,inactive: -0.011
KIAA1522 isoform 2 (UniProt Q9P206),inactive: 0.108,inactive: -0.033,inactive: -0.028,inactive: -0.112,inactive: 0.032,inactive: -0.087,inactive: 0.119,inactive: -0.056,inactive: -0.015,inactive: 0.053
KDELR2 (UniProt P33947),inactive: 0.033,inactive: -0.18,inactive: -0.089,inactive: -0.02,inactive: -0.016,inactive: -0.125,inactive: -0.063,inactive: 0.255,–,–

# Complete entries as entered above. Values in the order: log2 fold change [1]	log2 fold change (volasertib)	log2 fold change [2]	log2 fold change (epoxomicin)	log2 fold change [3]	log2 fold change [4]	log2 fold change [5]	log2 fold change [6]	log2 fold change [7]	log2 fold change (rosiglitazone)
# KIAA0100 (UniProt Q14667) is entered as inactive: -0.175	inactive: -0.047	inactive: 0.094	inactive: -0.018	inactive: -0.01	inactive: 0.01	inactive: -0.1	inactive: -0.048	inactive: -0.067	inactive: 0.02
# KPNA4 (UniProt O00629) is entered as inactive: -0.008	inactive: -0.251	inactive: 0.033	inactive: -0.008	inactive: 0.029	inactive: 0	inactive: -0.066	inactive: -0.052	–	–

# Source: the supplement of paper PMC10849652
